From ChEMBL document CHEMBL3988442, “University of Dundee, Small-Polar-MMV Screening Library” (2021).

Protein sequences, listed by entry. Tags and fused reporters are not part of them.
UniProt E9BF75, entry or part of it: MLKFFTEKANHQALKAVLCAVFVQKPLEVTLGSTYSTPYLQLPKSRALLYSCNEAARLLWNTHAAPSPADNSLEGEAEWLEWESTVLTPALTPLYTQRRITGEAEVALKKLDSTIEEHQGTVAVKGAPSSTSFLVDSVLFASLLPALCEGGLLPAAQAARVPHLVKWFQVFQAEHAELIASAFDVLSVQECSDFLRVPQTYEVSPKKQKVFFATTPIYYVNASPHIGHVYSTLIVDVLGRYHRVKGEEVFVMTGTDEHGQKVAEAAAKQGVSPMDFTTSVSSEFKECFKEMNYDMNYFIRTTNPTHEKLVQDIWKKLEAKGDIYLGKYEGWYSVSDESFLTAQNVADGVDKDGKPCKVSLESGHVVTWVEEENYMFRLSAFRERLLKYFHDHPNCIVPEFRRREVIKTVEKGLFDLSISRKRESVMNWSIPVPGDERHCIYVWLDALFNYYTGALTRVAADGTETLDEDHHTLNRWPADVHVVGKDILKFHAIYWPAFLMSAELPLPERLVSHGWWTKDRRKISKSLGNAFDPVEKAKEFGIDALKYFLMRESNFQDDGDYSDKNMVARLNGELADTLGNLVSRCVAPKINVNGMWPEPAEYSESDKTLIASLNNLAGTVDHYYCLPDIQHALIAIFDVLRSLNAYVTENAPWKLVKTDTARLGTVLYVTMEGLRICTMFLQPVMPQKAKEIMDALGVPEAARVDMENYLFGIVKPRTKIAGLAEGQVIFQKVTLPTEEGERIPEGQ

Mtb heat-shock: 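Assay on Mycobacterium tuberculosis, filed only as a heat shock assay from Cornell; the read-out is not stated. The concentration is filed as 10 mM, unlikely as a test dose, so the dose is not known. Higher reads as stronger inhibition (inferred: compounds with an IC50 in retests scored well above the rest). Of about 69,000 compounds tested this way, about 930 (1.4%) reached 50% or more in at least one test.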
Mtb growth Cornell: 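Whole-cell assay for inhibitors of Mycobacterium tuberculosis growth, labelled Cornell in the record; the read-out is not stated. The concentration is filed as 10 mM, unlikely as a test dose, so the dose is not known. Higher means stronger inhibition (inferred from two other growth screens of the library). Of about 53,000 compounds tested this way, about 900 (1.7%) reached 50% or more in at least one test.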
LdMetRS: 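Primary screen of methionyl-tRNA synthetase; the read-out is not stated. Target: Methionyl-tRNA synthetase (putative), Leishmania donovani (UniProt E9BF75). The test concentration is not given. The values are filed as inhibition. About 68,000 compounds were tested under these conditions; 0.035% (about 24) showed 50% or more at least once.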

All values are in %.
The record does not define 0% and 100%; most values in the screen are far below 50% and negative numbers occur (in some assays of this library far below -100).
Compounds were drawn at random from those tested, without regard to their results.

* [H][C@@]12CCN(S(=O)(=O)C3CC3)[C@]1([H])CC[C@@H](c1nnc(C)o1)O2 | Mtb heat-shock: -5.586%; Mtb growth Cornell: 1.255%
* Cc1noc(C2CCCN(C(=O)c3ccc(F)cc3F)C2)n1 (centres unmarked) | Mtb heat-shock: 15.36%; Mtb growth Cornell: 21.25%; LdMetRS: 8.591%
* CC(C)c1cc(O)nc(C2CCCN2C(=O)C(C)(C)C)n1 (centres unmarked) | Mtb heat-shock: -25.79%; Mtb growth Cornell: -56.67%; LdMetRS: 0%
* COC1CN(CCO)S(=O)(=O)c2ccccc21 (centres unmarked) | Mtb heat-shock: 24.47%; Mtb growth Cornell: -5.76%; LdMetRS: 15.62%
* Cn1ccc2c(NC(=O)Cn3ncc4c(c3=O)CCCCC4)cccc21 | Mtb heat-shock: -1.378%; Mtb growth Cornell: 7.683%; LdMetRS: 13.94%
* O=C(O)C(F)(F)F.O=S(=O)(Cc1ccccc1)N1CCCn2cnc(CN3CCCC3)c2C1 | Mtb heat-shock: 6.17%; Mtb growth Cornell: 23.01%
* OCCN1CCN(CC(O)c2cc(Cl)ccc2Cl)CC1 (centres unmarked) | Mtb heat-shock: -17.79%; Mtb growth Cornell: -15.27%; LdMetRS: 8.333%
* Cn1ccc2cc(C(=O)N3CCOCC3)ccc21 | Mtb heat-shock: 1.877%; LdMetRS: 7.143%
* CN1CCC(N(C)C[C@H]2CC[C@@H](Cc3cccc(CO)c3)O2)CC1 | Mtb heat-shock: -45.07%; LdMetRS: 10.26%
* O=C(NS(=O)(=O)c1cccnc1)C1CC(c2ccccc2)=NO1 (centres unmarked) | Mtb heat-shock: 1.256%; Mtb growth Cornell: 35.93%; LdMetRS: 14.87%
* COc1cccc(C2CCN2C(=O)c2cc(C(C)C)on2)c1 (centres unmarked) | Mtb heat-shock: 14.09%; Mtb growth Cornell: 31.7%; LdMetRS: 7.013%
* CCc1cc(N(C)CCc2noc(C)n2)nc(N2CCOCC2)n1 | Mtb heat-shock: 25.95%; Mtb growth Cornell: 11.46%; LdMetRS: 15.33%
* NC(=O)C(Nc1cccc(CO)c1)c1ccc(Br)cc1 (centres unmarked) | Mtb heat-shock: 10.36%; Mtb growth Cornell: 23.07%; LdMetRS: 11.02%
* O=C(Cn1ccc2c(Cl)cccc21)N1CCCC1 | Mtb heat-shock: 36.34%; Mtb growth Cornell: -3.368%; LdMetRS: 6.422%
* CC(=O)N1CCN(C(=O)c2csc(-c3ccc(C)cc3C)n2)CC1 | Mtb heat-shock: -33.26%; LdMetRS: 9.206%
* Cc1ccc2ncnc(N3CCOCC3c3c(C)nn(C)c3C)c2c1 (centres unmarked) | Mtb heat-shock: -6.216%; Mtb growth Cornell: 19.61%; LdMetRS: 14.63%
* [H][C@]12CCCCN1CCC[C@H]2CN(C)Cc1ccccc1-n1cccn1 | Mtb heat-shock: -27.69%
* CC(C)C1=NOC(c2nc(Cc3ccccc3)no2)C1 (centres unmarked) | Mtb heat-shock: 22.87%; Mtb growth Cornell: 13.24%; LdMetRS: 15.81%
* CS(=O)(=O)NC1CCN(C(=O)NCc2cccnc2)CC1 | Mtb heat-shock: 5.64%; LdMetRS: 2.21%
* CSCC(CCO)NC(=O)c1cccc(Cl)c1F (centres unmarked) | Mtb heat-shock: -15.8%; Mtb growth Cornell: 5.047%; LdMetRS: 10.76%
* Cc1ccc(-c2nnc(CN3CCn4c(nnc4C4CC4)C3)o2)cc1 | Mtb heat-shock: 1.522%; Mtb growth Cornell: 2.899%; LdMetRS: 15.32%
* O=C(C1CC12CCC2)N1CCC(n2cc(-c3ccsc3)nn2)CC1 (centres unmarked) | Mtb heat-shock: 27.87%; Mtb growth Cornell: 29.67%; LdMetRS: 14.08%
* O=C1c2c(O)cc(O)cc2O[C@@H](c2ccc(O)cc2)[C@@H]1O | Mtb heat-shock: 53.66%; LdMetRS: 4.945%
* CCN(CC1CCOCC1)C(=O)C1CC(=O)N(Cc2cccnc2)C1 (centres unmarked) | Mtb heat-shock: 5.636%; Mtb growth Cornell: 0.6747%; LdMetRS: 12.93%

For reference, 2 entries once more:

{"compound": "CSCC(CCO)NC(=O)c1cccc(Cl)c1F", "stereo": "centres unmarked", "Mtb heat-shock": -15.8, "Mtb growth Cornell": 5.047, "LdMetRS": 10.76}
{"compound": "Cc1ccc(-c2nnc(CN3CCn4c(nnc4C4CC4)C3)o2)cc1", "Mtb heat-shock": 1.522, "Mtb growth Cornell": 2.899, "LdMetRS": 15.32}